Results of single-concentration screens

The filed quantity is “Percent Effect” (%). How 0% and 100% were set is not recorded. Most values in the screen are low, and negative values occur. Compounds were drawn at random from those tested, without regard to their results. Two or more numbers in one place are separate tests of the same structure; such repeats can differ widely.

T. brucei: 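Whole-parasite assay of Trypanosoma brucei over 72 hours; the read-out is not stated. Concentration: 30 µM. The record gives no direction; compounds that gave an IC50 in retests scored well above the rest, so higher reads as stronger inhibition. Values scatter widely below zero; nearly all retest evidence comes from the higher of the two concentrations used. Of about 64,000 compounds tested this way, about 940 (1.5%) reached 50% or more in at least one test.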
Toxoplasma: 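Assay of Toxoplasma gondii numbers, read through their beta-galactosidase reporter with a colour substrate. Compounds at 10 µM. The record gives no direction; the compounds picked for IC50 retests had high values, so higher reads as fewer parasites. Of about 67,000 compounds tested this way, about 260 (0.38%) reached 50% or more in at least one test.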
Leishmania in macrophages: 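Cell assay of Leishmania donovani living inside macrophages; the read-out is not stated. Compounds at 30 µM. Direction is inferred from retests: higher values go with stronger inhibition. About 69,000 compounds were tested under these conditions; 1.5% (about 1,000) showed 50% or more at least once.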

* CN(C)[C@@H]1CN(C(=O)c2cc3cccc(F)c3[nH]2)C[C@H]1O | T. brucei: 5.267%; Toxoplasma: -9.339%; Leishmania in macrophages: 32.11%
* CCC(C)NC(=O)NCCCn1nc2ccccn2c1=O (centres undefined) | T. brucei: 7.911%; Toxoplasma: 9.822%; Leishmania in macrophages: 18.72%
* COc1cccc2c1N(S(=O)(=O)c1cc(C(=O)O)cs1)CCC2 | T. brucei: -33.36%; Toxoplasma: -0.2938%; Leishmania in macrophages: 4.77%
* C1CN(c2nc3c(c(NC4CC4)n2)CN(CC2CCOC2)CC3)CCO1 (centres undefined) | T. brucei: -55.53%; Toxoplasma: -0.3386%; Leishmania in macrophages: 15.73% and -18.75%
* CCCc1ncc(C(=O)c2ccc(OC)cc2)n1C | T. brucei: -66.76%; Toxoplasma: 11.93%; Leishmania in macrophages: 12.45%
* O=C(Nc1nncs1)N1CCC(CCO)CC1 | T. brucei: -22.78%; Toxoplasma: 0.7299%; Leishmania in macrophages: -10.56%
* CN(Cc1cnn(C)c1)S(=O)(=O)N1CCc2ccccc2C1 | T. brucei: -69.76%; Toxoplasma: 18.76%; Leishmania in macrophages: -14.24%
* CCN(CCn1cccn1)C(=O)CN1C(=O)OC[C@@H]1c1ccccc1 | T. brucei: -13.74%; Toxoplasma: -3.156%; Leishmania in macrophages: 22.8%
* Cc1cccc(CCC(=O)Nc2cccnc2N2CCC(O)CC2)c1 | T. brucei: -30.37%; Toxoplasma: 15.26%; Leishmania in macrophages: -15.81%
* CCOC(=O)c1n[nH]cc1-c1cncn1CCCn1nc(C)cc1C.Cl | T. brucei: -13.65%; Toxoplasma: 3.866%; Leishmania in macrophages: 20.06%
* Cc1cc(C)cc(C2(C(=O)NCC(C)CN3CCCC3=O)CC2)c1 (centres undefined) | T. brucei: -9.266%; Toxoplasma: -7.697%; Leishmania in macrophages: 10.15%
* Cc1nc(NC(=O)C(C)N2CCN(c3cnccn3)CC2)sc1C (centres undefined) | T. brucei: -32.67%; Toxoplasma: -15.07%; Leishmania in macrophages: 18.75%
* COc1cc(C)nc(N2CCN(C(=O)CCc3nccs3)CC2)n1 | T. brucei: -20.68%; Toxoplasma: -2.308%; Leishmania in macrophages: -2.292%
* COc1ncccc1NC(=O)C1CCOCC1 | T. brucei: -3.318%; Toxoplasma: -43.25%; Leishmania in macrophages: -1.798%
* COc1ccc2cc(CNCc3c(C)nn(C)c3N(C)C)ccc2c1 | T. brucei: 1.948%; Toxoplasma: -11.08%; Leishmania in macrophages: 19.32%
* O=C(O)C(F)(F)F.[H][C@@]12COC[C@]1(CNS(=O)(=O)CC)CN(Cc1sccc1C)C2 | T. brucei: -3.596%; Toxoplasma: -11.92%; Leishmania in macrophages: 35.93%
* COCCN1CCN(S(=O)(=O)C2CC2)Cc2cccnc21 | T. brucei: -48.88%; Toxoplasma: 12.53%; Leishmania in macrophages: 32.9%
* CC(=O)NCCC(=O)N(C/C=C/c1ccccc1)CCO | Toxoplasma: -48.64%; Leishmania in macrophages: 4.497%
* CN(Cc1cccs1)Cc1nnsc1Cl | T. brucei: -44.02%; Toxoplasma: 6.358%; Leishmania in macrophages: 12.09%
* COc1ccc(OC)c(Nc2nc3c(C)nn(C)c3c(=O)n2C)c1 | Toxoplasma: 19.4%; Leishmania in macrophages: 46.31%
* CC1CCN(S(=O)(=O)c2cccn(CC(=O)NC(C)(C)C)c2=O)CC1 | T. brucei: 1.142%; Toxoplasma: -3.665%; Leishmania in macrophages: 21.7%
* Cc1nc(CNC(=O)NCCC2=CCCC2)oc1C | T. brucei: -28.43%; Toxoplasma: -1.559%; Leishmania in macrophages: -23.24%
* O=C(NCC(F)(F)F)C1CSCN1S(=O)(=O)c1ccc(F)cc1 (centres undefined) | T. brucei: 14.08%; Toxoplasma: -0.3937%; Leishmania in macrophages: 0.1188%
* CS(=O)(=O)Cc1ccc(NC(=O)Cc2cccnc2)cc1F | T. brucei: -55.52%; Toxoplasma: 1.722%; Leishmania in macrophages: 2.804%

Once more, the final 2:

| structure | T. brucei | Toxoplasma | Leishmania in macrophages |
|---|---|---|---|
| `O=C(NCC(F)(F)F)C1CSCN1S(=O)(=O)c1ccc(F)cc1` (centres undefined) | 14.08% | -0.3937% | 0.1188% |
| `CS(=O)(=O)Cc1ccc(NC(=O)Cc2cccnc2)cc1F` | -55.52% | 1.722% | 2.804% |

Data taken from ChEMBL document CHEMBL3988442, “University of Dundee, Small-Polar-MMV Screening Library” (2021).